PubChem BioAssay AID1259254, NCATS | 2017
In all, the deposit lists about 59,000 reagents; shown is a part drawn at random. About 1,550 of them (2.6%) count as active. 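G2 share is only a proxy for re-replication; each gene was hit by three separate siRNAs, and active genes were retested.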 Entries without a mark were called inactive. Reagents against one gene are numbered here. Further read-outs or replicates are left out here. No sequences are given here. The record does not give: the amount of reagent.

- Assay: 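Finding genes that stop cells copying their DNA twice in one cycle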 (primary screen)
- System: human HCT116 colorectal cancer cells
- Reagents: single siRNA against human genes
- Timing: 3 days
- Measured: 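Imaged Hoechst DNA stain sorts each cell into a cycle phase by DNA amount; per plate, G2 fraction set to 0% for non-targeting and 100% for GMNN siRNA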
- Reading the numbers: G2 robust z-score: higher = more G2 cells, more excess DNA replication
- Active means: 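An siRNA counts as active if its G2 robust z-score lies at least 5 MADs above the screen median; here such calls match roughly 38% of GMNN control or more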

For ADGRB3 (adhesion G protein-coupled receptor B3) #1, the values are G2 robust z-score -0.769.
Knock-down of ADGRB3 (adhesion G protein-coupled receptor B3) #2 came out at: G2 robust z-score 2.24.
ADGRB3 (adhesion G protein-coupled receptor B3) #3 showed G2 robust z-score 2.61.
HMGB1 (high mobility group box 1) #1 scored G2 robust z-score -0.539.
HMGB1 (high mobility group box 1) #2 scored G2 robust z-score 2.94.
For HMGB1 (high mobility group box 1) #3 the deposit lists G2 robust z-score 0.0707.
Silencing of PLEKHM1P1 #1 came out at: G2 robust z-score -1.02.
With knock-down of PLEKHM1P1 #2, the record shows G2 robust z-score -0.639.
With knock-down of PLEKHM1P1 #3, the screen gave G2 robust z-score -0.351.
Silencing of GPR82 (G protein-coupled receptor 82) #1 gave: G2 robust z-score -0.4.
With knock-down of GPR82 (G protein-coupled receptor 82) #2, the screen gave G2 robust z-score -0.0487.
Against GPR82 (G protein-coupled receptor 82) #3, the entry reads G2 robust z-score -0.683.
Knock-down of PPP1R7 (protein phosphatase 1 regulatory subunit 7) #1 resulted in: G2 robust z-score 1.18.
After knock-down of PPP1R7 (protein phosphatase 1 regulatory subunit 7) #2, the screen gave G2 robust z-score 7.11 (active).
PPP1R7 (protein phosphatase 1 regulatory subunit 7) #3 showed G2 robust z-score 2.32.

A run of entries from the list above, for reference:
ADGRB3 (adhesion G protein-coupled receptor B3) #3 → G2 robust z-score = 2.61
HMGB1 (high mobility group box 1) #1 → G2 robust z-score = -0.539

The listing continues:
Silencing of LIN9 (lin-9 DREAM MuvB core complex component) #1 resulted in: G2 robust z-score 1.21.
Against LIN9 (lin-9 DREAM MuvB core complex component) #2 the deposit lists G2 robust z-score 4.45.
LIN9 (lin-9 DREAM MuvB core complex component) #3 showed G2 robust z-score 2.36.
LAMC3 (laminin subunit gamma 3) #1 gave G2 robust z-score -0.632.
LAMC3 (laminin subunit gamma 3) #2 gave G2 robust z-score 1.56.
Depletion of LAMC3 (laminin subunit gamma 3) #3 resulted in: G2 robust z-score -0.775.
For HIPK2 (homeodomain interacting protein kinase 2) #1, the values are G2 robust z-score -0.408.
HIPK2 (homeodomain interacting protein kinase 2) #2 gave G2 robust z-score -0.636.
With knock-down of HIPK2 (homeodomain interacting protein kinase 2) #3, the record shows G2 robust z-score -0.301.
Against HIPK2 (homeodomain interacting protein kinase 2) #4, the entry reads G2 robust z-score 0.286.
Against HIPK2 (homeodomain interacting protein kinase 2) #5 the deposit lists G2 robust z-score -0.877.
Against HIPK2 (homeodomain interacting protein kinase 2) #6, the values are G2 robust z-score 0.408.
With knock-down of TANGO6 (transport and golgi organization 6 homolog) #1, the screen gave G2 robust z-score 1.55.
Depletion of TANGO6 (transport and golgi organization 6 homolog) #2 resulted in: G2 robust z-score -0.112.
Against TANGO6 (transport and golgi organization 6 homolog) #3 the deposit lists G2 robust z-score -0.147.
